Results reported in patent publication US20130189727.
The exact form of at least one protein or probe is not confirmed.

Biological target: Lysozyme (Gallus gallus (hen egg white)) (UniProt P00698)
Experiment: binding assay
Conditions: 5'-NH2, immobilized on triazine-functionalized silica nanoparticles (~60 aptamers per NP), purified native protein, protein details: Sigma-Aldrich, single-stranded DNA

Question: With “ATCTACGAATTCATCAGGGCTAAAGAGTGCAGAGTTACTTAG [Anti-lysozyme aptamer]” as the sequence, how does the Kd (CITED Cox and Ellington 2001, measured in solution) read?
Answer: 31 nM

Question: What about the Kd (apparent Kd approx 9 ug/mL, half-maximum PFVSO3 polymer fluorescence on 60 Apt-NP, 20 mM Tris-HCl, 100 mM NaCl, 5 mM MgCl2, pH 8.5, room temperature) of the same sequence?
Answer: 625 nM
